Results on 40 sequences are retold here after PMC7862700.

The list shows a part of the results, in another mix than the full data. At the low end of the ranking the order means little.

For the assay, the target named is SPI1 (UniProt P17947). Briefly: DAPPL (digital affinity profiling via proximity ligation, sequencing). The settings on record: 10 mM Tris-HCl pH 7.5, 50 mM NaCl, 1 mM DTT, 4% glycerol, room temperature, 30 min; GST-TFs on glutathione beads, 16-mer random dsDNA library, 0.1% …; high values mean tight binding; double strand, one strand shown; scale: fold enrichment (6-mer frequency, TF over GST control).
Take CGTAGA: the binding signal is 0.698. The value for GGGGAG was 0.384; that for CTGTCG was 0.546. ACGCAG registered a binding signal of 0.801. The figure for GAGCAA is 0.686. GGTCAT had a binding signal of 0.801. As for CAGGAG, the binding signal was found to be 0.23. GCGGAT came in with a binding signal of 0.858. For the sequence GTAGTA, the binding signal worked out at 0.875. The value for CAGTGC was 0.765; that for CGGCGC was 0.609. The figure for TCGGAG is 0.191. The value for AGAGTG was 0.553.

Take ACCAGA: the binding signal came to 0.835. The value for ACGTCG was 0.604. As for AGGGTG, the binding signal was 0.691. GTTCGG registered a binding signal of 0.6.

GAGAGT had a binding signal of 0.346. The value for GTGATA was 0.726; that for AGTTCG was 0.752.

Regarding AGCAGG, the binding signal amounted to 0.862. For the sequence TCGGTA, the binding signal was 0.564. In the case of CGAGGA, the binding signal is 0.589. The value for CACAGA was 0.815; that for GACTAA was 0.804; that for GCGGCG was 0.846.

CGGTAG registered a binding signal of 0.614.

GGGTAG returned a binding signal of 0.642.

As for CAGGAC, the binding signal is 0.692.

Consider AGGCCT, for which the binding signal was 0.924. GGTTGA returned a binding signal of 0.754. With GAGAGC, the binding signal came out at 0.354. The sequence GGAGAC gave a binding signal of 0.153. The figure for CAGCGA is 0.805; for CGGTCC it is 0.911; for TCGTGT it is 0.733. The figure for CAGTAG is 0.583; for CGGGGG it is 0.42.

Sequence GCCAGG had a binding signal of 0.39. The figure for ACCGTA is 0.881.
